Data on eight molecules can be found in the supplement of paper PMC7238544.

Each structure is given as a SMILES string. Where a name gives a salt, the structure may show the parent alone. ± gives the standard deviation of the averaged measurements. Some of the results follow. The data scatter; read single values as rough.

The test system of experiment [1] is hAMSC donor 1. As to the kind of experiment: Hoechst total cell count ratio vs vehicle control; higher = more cells (less toxicity).
The subject of experiment [2] is hAMSC donor 2. Described as above.
Experiment [3] has as its system hAMSC donor 1. As to the kind of experiment: transgenic luciferase activity (RLU/mg protein) fold change vs vehicle control (ratio); higher = more transgene expression.
The test system of experiment [4] is hAMSC donor 2. Described as above.
Experiment [5] deals with hAMSC donor 1. As to the kind of experiment: transfection efficiency (EGFP+ cells / Hoechst count) fold change vs vehicle control (ratio); hAMSC are human adipose-derived mesenchymal stem cells given an EGFP-luciferase plasmid by lipofection; higher = enhanced transfection.
Experiment [6] has as its system hAMSC donor 2. The experiment is described as above.
The mark [7] stands for this setting: priming compound concentration 0.2 µM.
Setting [8] is: priming compound concentration 1.7 µM.
Where [9] appears, read: priming compound concentration 13 µM.

On to `Cc1noc(NS(=O)(=O)c2ccc(N)cc2)c1C` [Sulfisoxazole], for which the “Hoechst total cell count ratio” value with hAMSC donor 1 [1] (setting [7]) came to 1.18 ± 0.23; in the experiment on hAMSC donor 1 [1] (setting [8]), 1.16 ± 0.16; with hAMSC donor 1 [1] (setting [9]), 1.13 ± 0.31; in the experiment on hAMSC donor 2 [2] (setting [7]), 1.18 ± 0.3; in the experiment on hAMSC donor 2 [2] (setting [8]) it was 1.37 ± 0.05; with hAMSC donor 2 [2] (setting [9]), 1.66 ± 0.51. Further, the transgenic luciferase activity in the experiment with hAMSC donor 1 [3] (setting [8]) is 2.78 ± 1.2; in the experiment on hAMSC donor 2 [4] (setting [7]), 0.529 ± 0.12; in the experiment with hAMSC donor 2 [4] (setting [8]), 0.345 ± 0.065; in the experiment on hAMSC donor 2 [4] (setting [9]), 0.167 ± 0.0091. Further, the transfection efficiency with hAMSC donor 1 [5] (setting [7]) was 1.11 ± 0.26; with hAMSC donor 1 [5] (setting [8]), 1.67 ± 0.48; in the experiment with hAMSC donor 1 [5] (setting [9]), 1.05 ± 0.36; in the experiment on hAMSC donor 2 [6] (setting [7]) it was 1.26 ± 0.44; in the experiment with hAMSC donor 2 [6] (setting [8]), 0.905 ± 0.036; in the experiment on hAMSC donor 2 [6] (setting [9]), 1.15 ± 0.43.

Regarding `OCCOCCN1CCN(C(c2ccccc2)c2ccc(Cl)cc2)CC1` (stereo not drawn) [Hydroxyzine pamoate], the “Hoechst total cell count ratio” value in the experiment with hAMSC donor 1 [1] (setting [7]) amounted to 1.23 ± 0.15; in the experiment with hAMSC donor 1 [1] (setting [8]) it was 1.48 ± 0.26; in the experiment on hAMSC donor 1 [1] (setting [9]) it was 1.5 ± 0.13; in the experiment with hAMSC donor 2 [2] (setting [7]) it was 1.12 ± 0.069; with hAMSC donor 2 [2] (setting [8]), 1.19 ± 0.063; in the experiment with hAMSC donor 2 [2] (setting [9]) it was 1.01 ± 0.29. The transgenic luciferase activity worked out at 0.817 ± 0.21 in the experiment with hAMSC donor 1 [3] (setting [9]), 0.756 ± 0.13 in the experiment with hAMSC donor 2 [4] (setting [7]), 0.689 ± 0.042 in the experiment on hAMSC donor 2 [4] (setting [8]) and 0.587 ± 0.17 with hAMSC donor 2 [4] (setting [9]). In addition, the transfection efficiency came out at 1.08 ± 0.24 in the experiment on hAMSC donor 1 [5] (setting [7]); 1.27 ± 0.34 in the experiment on hAMSC donor 1 [5] (setting [8]); 0.874 ± 0.13 with hAMSC donor 1 [5] (setting [9]); 1.06 ± 0.21 in the experiment on hAMSC donor 2 [6] (setting [7]); 0.999 ± 0.083 in the experiment with hAMSC donor 2 [6] (setting [8]); 0.917 ± 0.1 in the experiment with hAMSC donor 2 [6] (setting [9]).

For `NS(=O)(=O)c1cc2c(cc1Cl)NCNS2(=O)=O` [Hydrochlorothiazide], the “Hoechst total cell count ratio” value with hAMSC donor 1 [1] (setting [7]) turned out to be 1.33 ± 0.17; in the experiment with hAMSC donor 1 [1] (setting [8]) it was 1.54 ± 0.028; in the experiment on hAMSC donor 1 [1] (setting [9]) it was 1.44 ± 0.21; in the experiment on hAMSC donor 2 [2] (setting [7]), 0.967 ± 0.048; in the experiment with hAMSC donor 2 [2] (setting [8]), 0.989 ± 0.025; with hAMSC donor 2 [2] (setting [9]) it was 0.86 ± 0.087. The transgenic luciferase activity worked out at 0.612 ± 0.041 in the experiment with hAMSC donor 1 [3] (setting [9]), 0.673 ± 0.17 in the experiment on hAMSC donor 2 [4] (setting [7]), 0.842 ± 0.086 in the experiment on hAMSC donor 2 [4] (setting [8]) and 0.747 ± 0.21 with hAMSC donor 2 [4] (setting [9]). In addition, the transfection efficiency in the experiment on hAMSC donor 1 [5] (setting [7]) was determined as 0.811 ± 0.095; with hAMSC donor 1 [5] (setting [8]), 1.13 ± 0.41; in the experiment on hAMSC donor 1 [5] (setting [9]), 0.688 ± 0.28; with hAMSC donor 2 [6] (setting [7]), 1.14 ± 0.06; in the experiment on hAMSC donor 2 [6] (setting [8]), 0.95 ± 0.091; with hAMSC donor 2 [6] (setting [9]) it was 1.09 ± 0.18.

`COc1cc(C)c(/C=C/C(C)=C/C=C/C(C)=C/C(=O)O)c(C)c1C` [Acitretin]: the “Hoechst total cell count ratio” value worked out at 1.19 ± 0.18 with hAMSC donor 1 [1] (setting [7]); 1.39 ± 0.46 in the experiment on hAMSC donor 1 [1] (setting [8]); 1.32 ± 0.28 with hAMSC donor 1 [1] (setting [9]); 1.03 ± 0.091 with hAMSC donor 2 [2] (setting [7]); 0.942 ± 0.059 with hAMSC donor 2 [2] (setting [8]); 0.759 ± 0.13 in the experiment with hAMSC donor 2 [2] (setting [9]). For the same molecule, the transgenic luciferase activity in the experiment with hAMSC donor 1 [3] (setting [9]) amounted to 0.613 ± 0.22; in the experiment with hAMSC donor 2 [4] (setting [7]), 0.676 ± 0.13; in the experiment with hAMSC donor 2 [4] (setting [8]) it was 0.684 ± 0.071; in the experiment with hAMSC donor 2 [4] (setting [9]), 0.666 ± 0.2. The transfection efficiency in the experiment on hAMSC donor 1 [5] (setting [7]) is 0.862 ± 0.13; in the experiment on hAMSC donor 1 [5] (setting [8]) it was 1.25 ± 0.34; with hAMSC donor 1 [5] (setting [9]), 0.808 ± 0.44; with hAMSC donor 2 [6] (setting [7]), 0.98 ± 0.076; in the experiment on hAMSC donor 2 [6] (setting [8]), 1.05 ± 0.071; in the experiment on hAMSC donor 2 [6] (setting [9]), 0.882 ± 0.14.

Regarding `CC(C)(C(=O)O)c1ccc(C(O)CCCN2CCC(C(O)(c3ccccc3)c3ccccc3)CC2)cc1` (stereo not drawn) [Fexofenadine hydrochloride], the “Hoechst total cell count ratio” value was found to be 1.53 ± 0.17 with hAMSC donor 1 [1] (setting [7]); 1.5 ± 0.2 in the experiment on hAMSC donor 1 [1] (setting [8]); 1.2 ± 0.25 with hAMSC donor 1 [1] (setting [9]); 1.09 ± 0.1 with hAMSC donor 2 [2] (setting [7]); 1.2 ± 0.11 with hAMSC donor 2 [2] (setting [8]); 1.23 ± 0.099 in the experiment on hAMSC donor 2 [2] (setting [9]). Moreover, the transgenic luciferase activity with hAMSC donor 1 [3] (setting [9]) turned out to be 1.08 ± 0.18; in the experiment on hAMSC donor 2 [4] (setting [7]), 0.713 ± 0.14; with hAMSC donor 2 [4] (setting [8]), 0.647 ± 0.096; in the experiment on hAMSC donor 2 [4] (setting [9]), 0.664 ± 0.17. Further, the transfection efficiency in the experiment with hAMSC donor 1 [5] (setting [7]) stood at 0.752 ± 0.067; in the experiment on hAMSC donor 1 [5] (setting [8]), 0.974 ± 0.21; in the experiment on hAMSC donor 1 [5] (setting [9]), 1.06 ± 0.27; with hAMSC donor 2 [6] (setting [7]), 1.03 ± 0.092; in the experiment on hAMSC donor 2 [6] (setting [8]), 0.984 ± 0.049; in the experiment on hAMSC donor 2 [6] (setting [9]), 0.945 ± 0.17.

As to `Cc1ccccc1C(OCCN(C)C)c1ccccc1` (stereo not drawn) [Orphenadrine hydrochloride], the “Hoechst total cell count ratio” value in the experiment on hAMSC donor 1 [1] (setting [7]) was found to be 1.29 ± 0.056; in the experiment with hAMSC donor 1 [1] (setting [8]), 1.45 ± 0.11; with hAMSC donor 1 [1] (setting [9]), 1.32 ± 0.15; with hAMSC donor 2 [2] (setting [7]), 1.12 ± 0.13; in the experiment on hAMSC donor 2 [2] (setting [8]), 1.08 ± 0.041; in the experiment on hAMSC donor 2 [2] (setting [9]), 1.05 ± 0.19. For the same molecule, the transgenic luciferase activity with hAMSC donor 1 [3] (setting [9]) was determined as 0.358 ± 0.11; with hAMSC donor 2 [4] (setting [7]) it was 0.739 ± 0.27; in the experiment with hAMSC donor 2 [4] (setting [8]), 1.13 ± 0.33; in the experiment on hAMSC donor 2 [4] (setting [9]) it was 0.847 ± 0.073. Moreover, the transfection efficiency was determined as 0.685 ± 0.058 in the experiment on hAMSC donor 1 [5] (setting [7]); 1.41 ± 0.8 with hAMSC donor 1 [5] (setting [8]); 0.979 ± 0.11 with hAMSC donor 1 [5] (setting [9]); 1.1 ± 0.17 with hAMSC donor 2 [6] (setting [7]); 1.19 ± 0.092 in the experiment on hAMSC donor 2 [6] (setting [8]); 0.928 ± 0.14 in the experiment with hAMSC donor 2 [6] (setting [9]).

Turning to `c1ccc(CC2=NCCN2)cc1` [Priscoline hydrochloride], the “Hoechst total cell count ratio” value in the experiment on hAMSC donor 1 [1] (setting [7]) is 1.03 ± 0.062; with hAMSC donor 1 [1] (setting [8]) it was 1.06 ± 0.094; in the experiment on hAMSC donor 1 [1] (setting [9]), 1.25 ± 0.1; in the experiment with hAMSC donor 2 [2] (setting [7]), 1.12 ± 0.085; in the experiment on hAMSC donor 2 [2] (setting [8]), 1.15 ± 0.15; in the experiment on hAMSC donor 2 [2] (setting [9]), 0.963 ± 0.04. Moreover, the transgenic luciferase activity in the experiment on hAMSC donor 1 [3] (setting [9]) was 0.665 ± 0.52; with hAMSC donor 2 [4] (setting [7]), 0.938 ± 0.13; in the experiment on hAMSC donor 2 [4] (setting [8]), 0.915 ± 0.035; with hAMSC donor 2 [4] (setting [9]) it was 0.867 ± 0.094. Moreover, the transfection efficiency in the experiment with hAMSC donor 1 [5] (setting [7]) came out at 1.11 ± 0.28; in the experiment with hAMSC donor 1 [5] (setting [8]), 1.37 ± 0.31; in the experiment on hAMSC donor 1 [5] (setting [9]), 0.721 ± 0.22; in the experiment on hAMSC donor 2 [6] (setting [7]), 1.07 ± 0.13; in the experiment with hAMSC donor 2 [6] (setting [8]), 1.11 ± 0.062; in the experiment with hAMSC donor 2 [6] (setting [9]), 0.879 ± 0.16.

On to `CCN1CC(CCN2CCOCC2)C(c2ccccc2)(c2ccccc2)C1=O` (stereo not drawn) [Doxapram hydrochloride], for which the “Hoechst total cell count ratio” value in the experiment with hAMSC donor 1 [1] (setting [7]) was 0.957 ± 0.17; in the experiment on hAMSC donor 1 [1] (setting [8]), 1 ± 0.13; in the experiment on hAMSC donor 1 [1] (setting [9]) it was 0.995 ± 0.2; in the experiment on hAMSC donor 2 [2] (setting [7]), 1.15 ± 0.056; in the experiment on hAMSC donor 2 [2] (setting [8]) it was 1.1 ± 0.1; in the experiment on hAMSC donor 2 [2] (setting [9]), 1.84 ± 0.56. For the same molecule, the transgenic luciferase activity was determined as 2.12 ± 0.96 in the experiment with hAMSC donor 1 [3] (setting [8]), 0.411 ± 0.25 with hAMSC donor 2 [4] (setting [7]), 0.442 ± 0.014 with hAMSC donor 2 [4] (setting [8]) and 0.213 ± 0.058 in the experiment on hAMSC donor 2 [4] (setting [9]). Besides, the transfection efficiency is 1.3 ± 0.34 in the experiment on hAMSC donor 1 [5] (setting [7]); 1.55 ± 0.75 in the experiment with hAMSC donor 1 [5] (setting [8]); 0.914 ± 0.52 in the experiment with hAMSC donor 1 [5] (setting [9]); 1.27 ± 0.17 in the experiment on hAMSC donor 2 [6] (setting [7]); 1.02 ± 0.24 in the experiment on hAMSC donor 2 [6] (setting [8]); 1.04 ± 0.13 with hAMSC donor 2 [6] (setting [9]).
